Source: patent publication US10624947B2, “Bactericidal peptides and uses thereof” (INDIANA UNIVERSITY RESEARCH AND TECHNOLOGY CORPORATION, priority 2016, dated 2020)
Entries after “also recorded” stand apart in the source; their conditions may differ. Read-outs that look alike come from different tables or passages of the source. Part of at least one peptide drawing is inferred or uncertain, most often the ends. Marks after values point to notes of the source that are not given here. Ends that are not written are not given here.

Columns and labels:
Pseudomonas aeruginosa = format: cell-based
Klebsiella pneumoniae = conditions: for Medium MIC: Table 8
Toll-like receptor 3 = assay: Poly(I:C)-induced cytokine production in BEAS-2B cells, ELISA; format: cell-based, human; conditions: for IL-6 production / IL-8 production: BEAS-2B cells, poly(I:C), peptide 2 μM
V. vulnificus YJ016 = assay: Growth curve measured by OD600; format: cell-based
Vibrio cholerae biofilms = assay: Biofilm LIVE/DEAD staining in microfluidic chamber; format: cell-based; conditions: 100 nM, 1 hour intervals
E. coli UTI198 = assay: Cell division time; format: cell-based, Escherichia coli; conditions: 100 nM
P. aeruginosa = assay: Growth rate of culture, optical density; format: cell-based, Pseudomonas aeruginosa; conditions: 30 nM peptide
Protocol: FIG. 21 is a graph showing of peptide B22 (mock), B22a and B22m1 (each at […]) can reduce bacterial growth of P. aeruginosa, wherein the bacteria were grown in a plate reader at 37° C. and shaken. Optical density was monitored every ten (10) minutes to track the growth rate.
This low concentration of the peptide should further decrease the possibility of peptide oligomerization, as oligomerization should be dependent on the concentration of the peptide. The growth of the bacterial culture was then monitored over time. […] The cell division time of E. coli and Enterobacter cloacae were also in the absence or presence of 100 nM of B22a. The presence of B22a increased the doubling time of both bacterial by more than 2-fold. […] Should B22a and B22m1 inhibit bacteria growth as well as kill bacteria through the formation of higher order structures in the membrane, the peptides may have multiple mechanisms to act against bacteria survival. Peptides that act by multiple mechanisms may result in lower bacterial resistance to the peptides.

V. vulnificus = assay: Iron-dextran septicemia model; format: in vivo, mice (strain CD-1); conditions: 10 or 20 μM intraperitoneally 1 h after V. vulnificus
Protocol: FIGS. 23A, B show the efficacy and toxicity of modified peptides in mice. […] The survival of mice injected intraperitoneally with iron dextran at 48 h after intraperitoneal injection of 10 or 20 μM of the modified peptides. […] Vibrio vulnificus (V. v.) strain CMCP6 was injected at 1×10^6 CFU. […] All mice receive iron dextran by intraperitoneal injection. Where indicated, 1 h later 10^6 bacterial CFU in 100 μL was injected into the peritoneum (opposite side). 1 h later, 100 μL of the peptide at the indicated concentration was administered on the same side as the bacterial injection.
Since B22a was effective in preventing infection of V. vulnificus in a surgical incision model, we tested it for efficacy for systemic infection in a mouse septicemia model (1). Groups of mice (strain CD-1) were first injected with […], followed 1 h later with an intraperitoneal injection of 1×10e6 colony forming units of V. vulnificus strain […]. The B22a was then injected intraperitoneally 1 h later and morbidity was monitored hourly for two days.
PB22N and other modified peptides were tested in a septicemic mouse model. V. vulnificus is a highly-pathogenic bacterium, causing septicemia and high mortality. In mice injected intraperitoneally with V. vulnificus, the majority of the mice had to be euthanized within 24 h due to severe symptoms associated with septicemia (FIG. 23B). […]

P. aeruginosa PAO1 = assay: Bactericidal activity, viable colony formation; format: cell-based, Pseudomonas aeruginosa
Protocol: (§1) The broth dilution assay tested for the inhibition of growth. To determine whether B22a has bactericidal activity, viable colonies that formed after bacteria were treated with 2 μM of B22a for 30 min were enumerated (Table 7). Peptide B22a reduced viable colony formation by E. coli by over 2 orders of magnitude. B22a reduced viable colony formation by P. aeruginosa by over 3 orders of magnitudes. B22a, like its predecessor B22, is a bactericidal for Gram-negative bacteria.

E. coli ATCC 25922 = assay: Bactericidal activity, viable colony formation; format: cell-based, Escherichia coli
Protocol: as §1

[1] = system: Enterobacter cloacae OC4080; assay: Cell division time; format: cell-based; conditions: 100 nM
[2] = Table 6, Pseudomonas aeruginosa ATCC 27853
[3] = Table 6, Pseudomonas aeruginosa OC4083
[4] = Table 6, Pseudomonas aeruginosa PAO1
[5] = Table 6, Pseudomonas aeruginosa PAO1 oprD
[6] = Table 6, Klebsiella pneumonia ATCC 700603
[7] = Table 6, Klebsiella pneumonia C2
[8] = Table 6, Klebsiella pneumonia OC4110
[9] = Table 6, Klebsiella pneumonia OC8893
[10] = Table 6, Enterobacter cloacae OC4080
[11] = Table 6, Enterobacter cloacae OC4092
[12] = Table 6, Escherichia coli ATCC 25922
[13] = Table 6, Escherichia coli ATCC 35218
[14] = Table 6, Escherichia coli IU342
[15] = Table 6, Escherichia coli J53 AzideR
[16] = Table 6, Escherichia coli MC4100a
[17] = Table 6, Escherichia coli OC4075
[18] = Table 6, Escherichia coli UTI89
[19] = Table 6, Serratia marcescens 4101
[20] = Table 6, Serratia marcescens 4104

**Q.** What does the source list for GRFKRLRKKLKKLFKKLSPVIPLLHLG [BMAP-27B]?
**A.** Minimal inhibitory concentration (Pseudomonas aeruginosa; P. aeruginosa 4083): 4 µg/mL; Minimal inhibitory concentration (Pseudomonas aeruginosa; P. aeruginosa ATCC 27853): 4 µg/mL; Minimal inhibitory concentration (Pseudomonas aeruginosa; P. aeruginosa PA01): 4 µg/mL; Minimal inhibitory concentration (Pseudomonas aeruginosa; P. aeruginosa PA01 oprD): 4 µg/mL; Minimal inhibitory concentration (Pseudomonas aeruginosa; [2]): 4 mM; Minimal inhibitory concentration (Pseudomonas aeruginosa; [3]): 4 mM; Minimal inhibitory concentration (Pseudomonas aeruginosa; [4]): 4 mM; Minimal inhibitory concentration (Pseudomonas aeruginosa; [5]): 4 mM; Minimal inhibitory concentration (Serratia marcescens; S. marcescens 4101): 16 µg/mL; Minimal inhibitory concentration (Serratia marcescens; S. marcescens 7553): 8 µg/mL; Minimal inhibitory concentration (Klebsiella pneumoniae; K. pneumoniae 4110): 8 µg/mL; Minimal inhibitory concentration (Klebsiella pneumoniae; K. pneumoniae ATCC 700603): 4 µg/mL; Minimal inhibitory concentration (Klebsiella pneumoniae; K. pneumoniae C2): 4 µg/mL; Minimal inhibitory concentration (Klebsiella pneumoniae; K. pneumoniae OC8893): 8 µg/mL; Minimal inhibitory concentration (Klebsiella pneumoniae; [6]): 4 mM; Minimal inhibitory concentration (Klebsiella pneumoniae; [7]): 4 mM; Minimal inhibitory concentration (Klebsiella pneumoniae; [8]): 8 mM; Minimal inhibitory concentration (Klebsiella pneumoniae; [9]): 8 mM; Minimal inhibitory concentration (Enterobacter cloacae; E. cloacae 4080): 4 µg/mL; Minimal inhibitory concentration (Enterobacter cloacae; E. cloacae 4092): 4 µg/mL; Minimal inhibitory concentration (Enterobacter cloacae; [10]): 4* mM; Minimal inhibitory concentration (Enterobacter cloacae; [11]): 4 mM; Minimal inhibitory concentration (Escherichia coli; E. coli 4075): 16 µg/mL; Minimal inhibitory concentration (Escherichia coli; E. coli ATCC 25922): 4 µg/mL; Minimal inhibitory concentration (Escherichia coli; E. coli ATCC 35218): 4 µg/mL; Minimal inhibitory concentration (Escherichia coli; E. coli IU0342): 4 µg/mL; Minimal inhibitory concentration (Escherichia coli; E. coli J53 AzideR): 4 µg/mL; Minimal inhibitory concentration (Escherichia coli; E. coli MC4100): 4 µg/mL; Minimal inhibitory concentration (Escherichia coli; [12]): 4 mM; Minimal inhibitory concentration (Escherichia coli; [13]): 4 mM; Minimal inhibitory concentration (Escherichia coli; [14]): 2 mM; Minimal inhibitory concentration (Escherichia coli; [15]): 4 mM; Minimal inhibitory concentration (Escherichia coli; [16]): 4 mM; Minimal inhibitory concentration (Escherichia coli; [17]): 4 mM; Minimal inhibitory concentration (Escherichia coli; [18]): 4 mM; IL-6 production (Toll-like receptor 3): only minimal production; IL-8 production (Toll-like receptor 3): only minimal production; Activation of proinflammatory response compared to LL-37 (Toll-like receptor 3; FIG. 4): reduced activation of proinflammatory response; V. vulnificus growth curve (V. vulnificus YJ016): greatly reduced; Inhibition of V. vulnificus growth (V. vulnificus YJ016; 1 μM): nearly complete inhibition

**Q.** FRKKLKKLFKKLSPVIPLLKLG [Peptide B22] was tested. Which “Death of bacteria in V. cholerae biofilms” value (Vibrio cholerae biofilms) did it give?
**A.** The value was “rapid death of the bacteria in biofilms”.

**Q.** And the Minimal inhibitory concentration (Pseudomonas aeruginosa; [2])?
**A.** The Minimal inhibitory concentration was 4 mM.

**Q.** What about the Minimal inhibitory concentration (Pseudomonas aeruginosa; [3]) of the same substance?
**A.** Its Minimal inhibitory concentration is 2 mM.

**Q.** And the Minimal inhibitory concentration (Pseudomonas aeruginosa; [4])?
**A.** The Minimal inhibitory concentration was 4 mM.

**Q.** And the Minimal inhibitory concentration (Pseudomonas aeruginosa; [5])?
**A.** Its Minimal inhibitory concentration is 4 mM.

**Q.** What about the Minimal inhibitory concentration (Serratia marcescens; Table 6, Serratia marcescens 4075A) of the same substance?
**A.** Its Minimal inhibitory concentration is >32 mM.

**Q.** And the Minimal inhibitory concentration (Serratia marcescens; [19])?
**A.** Its Minimal inhibitory concentration is >32 mM.

**Q.** And the Minimal inhibitory concentration (Serratia marcescens; [20])?
**A.** The Minimal inhibitory concentration was >32 mM.

**Q.** What about the Minimal inhibitory concentration (Klebsiella pneumoniae; [6]) of the same substance?
**A.** The Minimal inhibitory concentration was 2 mM.

**Q.** What about the Minimal inhibitory concentration (Klebsiella pneumoniae; [7]) of the same substance?
**A.** The Minimal inhibitory concentration was 4 mM.

**Q.** And the Minimal inhibitory concentration (Klebsiella pneumoniae; [8])?
**A.** The Minimal inhibitory concentration was 4 mM.

**Q.** And the Minimal inhibitory concentration (Klebsiella pneumoniae; [9])?
**A.** The Minimal inhibitory concentration was 4 mM.

**Q.** What about the Minimal inhibitory concentration (Enterobacter cloacae; [10]) of the same substance?
**A.** The Minimal inhibitory concentration was 4 mM.

**Q.** And the Minimal inhibitory concentration (Enterobacter cloacae; [11])?
**A.** The Minimal inhibitory concentration was 4 mM.

**Q.** And the Minimal inhibitory concentration (Escherichia coli; [12])?
**A.** Its Minimal inhibitory concentration is 2 mM.

**Q.** And the Minimal inhibitory concentration (Escherichia coli; [13])?
**A.** The Minimal inhibitory concentration was 4 mM.

**Q.** What about the Minimal inhibitory concentration (Escherichia coli; [14]) of the same substance?
**A.** Its Minimal inhibitory concentration is 4 mM.

**Q.** What about the Minimal inhibitory concentration (Escherichia coli; [15]) of the same substance?
**A.** Its Minimal inhibitory concentration is 4 mM.

**Q.** And the Minimal inhibitory concentration (Escherichia coli; [16])?
**A.** The Minimal inhibitory concentration was 4 mM.

**Q.** And the Minimal inhibitory concentration (Escherichia coli; [17])?
**A.** The Minimal inhibitory concentration was 4 mM.

**Q.** And the Minimal inhibitory concentration (Escherichia coli; [18])?
**A.** The Minimal inhibitory concentration was 2 mM.

**Q.** And the IL-6 production (Toll-like receptor 3)?
**A.** The IL-6 production was “do not enhance; also recorded: only minimal production”.

**Q.** And the IL-8 production (Toll-like receptor 3)?
**A.** The IL-8 production was “do not enhance; also recorded: only minimal production”.

**Q.** Which results are given for “FRKKLKKLFKKLSPVIPLLKLG-NH2 [Peptide B22a]”?
**A.** Death of bacteria in V. cholerae biofilms (Vibrio cholerae biofilms): amount of death of the V. cholera cells in the biofilms increase over time; Increase of doubling time of E. coli (E. coli UTI198): more than 2 fold; Minimal inhibitory concentration (Pseudomonas aeruginosa; [2]): 2 mM; Minimal inhibitory concentration (Pseudomonas aeruginosa; [3]): 2 mM; Minimal inhibitory concentration (Pseudomonas aeruginosa; [4]): 2 mM; Minimal inhibitory concentration (Pseudomonas aeruginosa; [5]): 2 mM; Growth rate of P. aeruginosa (P. aeruginosa): perceptibly reduced; Outcome in mouse septicemia model (V. vulnificus): did not prevent septicemia; Minimal inhibitory concentration (Serratia marcescens; [19]): >32 mM; Minimal inhibitory concentration (Serratia marcescens; [20]): >32 mM; MIC relative to K. pneumoniae without acquired drug resistance (Klebsiella pneumoniae; 19 of the 20 clinical isolates): unchanged; MIC relative to K. pneumoniae without acquired drug resistance (Klebsiella pneumoniae; Isolate 361): two-fold increase; Minimal inhibitory concentration (Klebsiella pneumoniae; [6]): 2 mM; Minimal inhibitory concentration (Klebsiella pneumoniae; [7]): 2 mM; Minimal inhibitory concentration (Klebsiella pneumoniae; [8]): 2 mM; Minimal inhibitory concentration (Klebsiella pneumoniae; [9]): 2 mM; Medium MIC (Klebsiella pneumoniae; clinical isolate 88 (NDM1+)): 2 mM; Medium MIC (Klebsiella pneumoniae; clinical isolate 92): 2 mM; Medium MIC (Klebsiella pneumoniae; clinical isolate 109): 2 to 4 mM; Medium MIC (Klebsiella pneumoniae; clinical isolate 113): 4 mM; Medium MIC (Klebsiella pneumoniae; clinical isolate 116): 2 to 4 mM; Medium MIC (Klebsiella pneumoniae; clinical isolate 118): 2 to 4 mM; Medium MIC (Klebsiella pneumoniae; clinical isolate 136): 4 mM; Medium MIC (Klebsiella pneumoniae; clinical isolate 170): 2 mM; Medium MIC (Klebsiella pneumoniae; clinical isolate 256): 2 mM; Medium MIC (Klebsiella pneumoniae; clinical isolate 262 (NDM1+)): 4 mM; Medium MIC (Klebsiella pneumoniae; clinical isolate 265): 4 mM; Medium MIC (Klebsiella pneumoniae; clinical isolate 280): 4 mM; Medium MIC (Klebsiella pneumoniae; clinical isolate 281): 2 to 4 mM; Medium MIC (Klebsiella pneumoniae; clinical isolate 284): 4 mM; Medium MIC (Klebsiella pneumoniae; clinical isolate 286): 2 mM; Medium MIC (Klebsiella pneumoniae; clinical isolate 328): 4 mM; Medium MIC (Klebsiella pneumoniae; clinical isolate 330): 4 mM; Medium MIC (Klebsiella pneumoniae; clinical isolate 361): 8 mM; Medium MIC (Klebsiella pneumoniae; clinical isolate 365): 2 to 4 mM; Medium MIC (Klebsiella pneumoniae; clinical isolate 399): 2 mM; Minimal inhibitory concentration (Enterobacter cloacae; [10]): 4 mM; Minimal inhibitory concentration (Enterobacter cloacae; [11]): 4 mM; Reduction of viable colony formation by P. aeruginosa (P. aeruginosa PAO1; 2 μM for 30 min): over 3 orders of magnitudes; Viable colony formation, P. aeruginosa PAO1 (P. aeruginosa PAO1; 2 μM peptide for 30 min): <20; Minimal inhibitory concentration (Escherichia coli; [12]): 2 mM; Minimal inhibitory concentration (Escherichia coli; [13]): 2 mM; Minimal inhibitory concentration (Escherichia coli; [14]): 2 mM; Minimal inhibitory concentration (Escherichia coli; [15]): 2 mM; Minimal inhibitory concentration (Escherichia coli; [16]): 4 mM; Minimal inhibitory concentration (Escherichia coli; [17]): 2 mM; Minimal inhibitory concentration (Escherichia coli; [18]): 2 mM; Reduction of viable colony formation by E. coli (E. coli ATCC 25922; 2 μM for 30 min): over 2 orders of magnitude; Viable colony formation, E. coli ATCC 25922 (E. coli ATCC 25922; 2 μM peptide for 30 min): 1.3 × 10^3; Increase of doubling time of Enterobacter cloacae [1]: more than 2 fold
